Measured values as given in ChEMBL document CHEMBL4190408 (J Med Chem, 2018).
In brackets after ≈: the same amount, converted by molar mass.

Protein sequences, listed by entry. Tags and fused reporters are not part of them. Lines headed by an entry give the natural chain unless they say otherwise; changes in a name come on top.
UniProt Q12809: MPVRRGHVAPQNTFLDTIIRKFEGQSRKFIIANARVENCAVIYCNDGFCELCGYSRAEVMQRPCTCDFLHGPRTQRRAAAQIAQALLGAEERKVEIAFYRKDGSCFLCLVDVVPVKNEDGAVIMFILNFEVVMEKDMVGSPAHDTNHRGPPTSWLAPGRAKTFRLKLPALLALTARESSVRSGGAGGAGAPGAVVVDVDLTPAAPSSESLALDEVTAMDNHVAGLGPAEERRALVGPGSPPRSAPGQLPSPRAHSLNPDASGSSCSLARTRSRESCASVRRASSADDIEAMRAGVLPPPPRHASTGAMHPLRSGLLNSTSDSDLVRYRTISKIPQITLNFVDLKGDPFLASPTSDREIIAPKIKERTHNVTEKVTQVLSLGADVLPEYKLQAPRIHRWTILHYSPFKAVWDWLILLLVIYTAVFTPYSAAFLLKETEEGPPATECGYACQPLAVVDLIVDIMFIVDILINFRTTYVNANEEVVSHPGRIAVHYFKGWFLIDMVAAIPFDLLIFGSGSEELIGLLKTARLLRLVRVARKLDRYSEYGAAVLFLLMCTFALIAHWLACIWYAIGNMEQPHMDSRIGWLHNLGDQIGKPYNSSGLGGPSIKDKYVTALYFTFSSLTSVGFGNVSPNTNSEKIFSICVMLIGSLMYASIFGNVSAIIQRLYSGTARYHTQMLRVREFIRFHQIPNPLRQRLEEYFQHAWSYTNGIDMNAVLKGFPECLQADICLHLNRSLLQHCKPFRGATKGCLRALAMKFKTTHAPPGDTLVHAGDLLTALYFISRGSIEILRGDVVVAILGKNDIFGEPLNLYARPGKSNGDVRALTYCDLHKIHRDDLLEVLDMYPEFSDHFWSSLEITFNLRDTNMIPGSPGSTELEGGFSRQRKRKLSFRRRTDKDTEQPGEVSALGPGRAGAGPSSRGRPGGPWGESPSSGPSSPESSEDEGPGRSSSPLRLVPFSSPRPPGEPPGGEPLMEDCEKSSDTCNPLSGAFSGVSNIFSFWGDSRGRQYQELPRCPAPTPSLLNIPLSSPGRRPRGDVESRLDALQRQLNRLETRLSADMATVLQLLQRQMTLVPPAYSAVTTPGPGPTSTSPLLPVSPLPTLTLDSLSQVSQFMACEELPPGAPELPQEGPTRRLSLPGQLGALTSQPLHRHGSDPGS

What was measured:
[1] = physchem; settings: buffer, pH 7.4
[2] = target: Voltage-gated inwardly rectifying potassium channel KCNH2 (Homo sapiens, UniProt Q12809)
[3] = physchem; settings: buffer, pH 7.4; remark: listed apart in the source

COc1ccc(NC(=O)N2CCN(c3nc(N)nc4sc(-c5cccnc5)nc34)CC2)cc1
logD at 1.5 h [1]: 3.06 | IC50 [2]: 2.2 µM | solubility kinetic at 1.5 h [3]: 32 µM (≈ 14.8 µg/mL)
